Results as given in the supplement of paper PMC8104966.
The list shows a part of the results. Repeats in this data set agree poorly, so a single value says little.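 U2OS cells expressing ACE2 were combined with U2OS cells expressing full-length spike, and imaging quantified fusion as the fraction of nuclei displaying both cell types' fluorescent markers. Non-toxic compounds with a fusion z-score under -3, i.e., over three standard deviations below the plate's DMSO wells, are called inhibitory hits.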

system: U2OS ACE2 x SARS-CoV-2 spike co-culture; assay: cell-cell fusion (fraction fused) z-score vs plate DMSO control; higher = more fusion; details: 30 µM; 5 h; toxicity class: non-toxic, passed QC

Structure (SMILES) | cell-cell fusion (z-score)
CC(=O)Nc1cc2ccccc2oc1=O | inactive: 2.56
C[C@]12CC[C@@H]3c4ccc(O)cc4C[C@@H](CCCCCCCCCS(=O)CCCC(F)(F)C(F)(F)F)[C@H]3[C@@H]1CC[C@@H]2O (stereo not given in full) [Fulvestrant] | inactive: 2.1
C#C[C@]1(O)CC[C@H]2[C@@H]3CCc4cc(OC5CCCC5)ccc4[C@H]3CC[C@@]21C [Quinestrol] | inactive: 1.59
Br.Br.CN(C)CCCc1cc(C(=O)Nc2ccc(-c3ccncc3)cc2)ccc1O | inactive: -1.48
CCOP(=S)(OCC)Oc1nc(Cl)c(Cl)cc1Cl | inactive: 4.1
Oc1c(I)cc(Cl)c2cccnc12 | inactive: 3
Clc1ccc(C(Cn2ccnc2)OCc2csc3c(Cl)cccc23)c(Cl)c1.O=[N+]([O-])O (stereo not given) [Sertaconazole nitrate] | active: -5.4
COc1ccc2c(c1OC)N=C(NC(=O)c1cccnc1)N1CCN=C21 | inactive: 1.96
CN[C@@H](C)C(=O)N[C@H]1CN(C(=O)CC(C)C)CC[C@H]2CC[C@@H](C(=O)NC(c3ccccc3)c3ccccc3)N2C1=O | inactive: 1.59
CC(=O)OCC[C@H](C)CCC=C(C)C | inactive: 1.93
CC(=O)OC(C)C[N+](C)(C)C.[Cl-] (stereo not given) [Methacholine Chloride] | inactive: 1.9
CC(=O)OC(C)C[N+](C)(C)C.[Cl-] (stereo not drawn) [Acetyl-beta-methylcholine chloride] | inactive: 1.9
CC(=O)OC(C)C[N+](C)(C)C.[Cl-] (stereo not given) | inactive: 1.24
Nc1nc2c(nc(Br)n2C2OC3CO[P@@](=O)([O-])O[C@@H]3C2O)c(=O)[nH]1.[Na+] (stereo not given in full) [8-Bromo-cGMP sodium] | inactive: 1.6
Oc1cc(O)cc(/C=C/c2ccc(O)c(O)c2)c1 [Piceatannol] | inactive: -2.21
O=C(O[C@@H]1C[C@@H]2C[C@@H]3C[C@H](C1)N2CC3=O)c1c[nH]c2ccccc12 [Dolasetron] | inactive: 0.879
C/C(=C\C(=O)OCCCCCCCCC(=O)O)C[C@@H]1OC[C@H](C[C@@H]2O[C@H]2[C@@H](C)[C@H](C)O)[C@@H](O)[C@H]1O | inactive: 3.81
CC(=O)[C@H]1CCC2C3CCC4=CC(=O)CC[C@]4(C)C3CC[C@@]21C (stereo not given in full) | inactive: 1.27
C[C@H](N)[C@H](O)c1cccc(O)c1.O=C(O)[C@H](O)[C@@H](O)C(=O)O | inactive: -0.162
COc1cc(OC2CCN(C)CC2)ccc1Nc1ncc2c(n1)n(C1CCCC1)c(=O)n2C | inactive: 1.51

Quoted from above for reference:
Structure (SMILES) | cell-cell fusion (z-score)
CC(=O)OC(C)C[N+](C)(C)C.[Cl-] (stereo not given) | inactive: 1.24
Nc1nc2c(nc(Br)n2C2OC3CO[P@@](=O)([O-])O[C@@H]3C2O)c(=O)[nH]1.[Na+] (stereo not given in full) [8-Bromo-cGMP sodium] | inactive: 1.6
